The values that follow come from doi:10.1101/2025.02.18.638932, “CHIP protects lysosomes from CLN4 mutant-induced membrane damages” (bioRxiv, 2025).

Sequences of proteins named here, by UniProt entry; tags and fusion partners are left off.
UniProt Q9UNE7: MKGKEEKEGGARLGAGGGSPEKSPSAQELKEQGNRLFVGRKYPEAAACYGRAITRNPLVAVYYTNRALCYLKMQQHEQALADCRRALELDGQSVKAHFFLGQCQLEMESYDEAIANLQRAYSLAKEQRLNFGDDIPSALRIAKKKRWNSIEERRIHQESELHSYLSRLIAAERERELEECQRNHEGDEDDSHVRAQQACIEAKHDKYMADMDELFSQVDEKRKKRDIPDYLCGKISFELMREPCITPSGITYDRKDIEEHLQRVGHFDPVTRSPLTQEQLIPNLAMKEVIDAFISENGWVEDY
UniProt O95670: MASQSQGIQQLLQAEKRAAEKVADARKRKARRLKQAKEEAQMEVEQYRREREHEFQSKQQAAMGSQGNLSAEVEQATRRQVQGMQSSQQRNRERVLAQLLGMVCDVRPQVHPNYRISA

These are yes or no findings as the source states them, for the method shown. In cells and extracts the contact can be indirect. Some results given as binding are weak or reduced against the parent protein; the word gives no strength. Tags and fused reporters may be left off the sequences shown.

The target in assay [1] is T1, FLAG-tagged WT DNAJC5 (human) (UniProt Q9H3Z4).
T1 sequence: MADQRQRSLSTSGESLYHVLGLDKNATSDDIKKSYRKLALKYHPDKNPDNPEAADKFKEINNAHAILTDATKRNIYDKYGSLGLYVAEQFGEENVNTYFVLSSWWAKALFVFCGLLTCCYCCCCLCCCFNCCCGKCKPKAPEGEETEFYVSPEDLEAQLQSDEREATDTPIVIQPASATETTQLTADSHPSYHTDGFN
Briefly: co-IP; HEK293T cells transfected with FLAG-tagged DNAJC5 variants or empty vector together with MYC-tagged CHIP; FLAG beads pulled down DNAJC5; bound proteins by immunoblotting. On the technique in general: A western blot detects proteins with antibodies after separation by electrophoresis.

Assay [2] concerns the target T1, FLAG-tagged WT DNAJC5 (human). Briefly: co-IP; 293T cells transfected with FLAG-DNAJC5, fractionated into cytosol and membrane fractions; ANTI-FLAG M2 Affinity Gel 1 h at 4 °C, washed with PBS; immunoblotting for endogenous ATP6V1G2.

In the case of “MYC-tagged CHIP (from UniProt Q9UNE7 1-303) (enzyme)”, the binding result in assay [1] is reported as “binds”. For “endogenous ATP6V1G2 (from UniProt O95670 1-118)”, the binding entry in assay [2] is given as “binds”.
